The test addresses T1, AtMPK3 (mitogen activated protein kinase-3), full length, yeast two-hybrid fusion (Arabidopsis thaliana) (UniProt Q39023).
T1 sequence: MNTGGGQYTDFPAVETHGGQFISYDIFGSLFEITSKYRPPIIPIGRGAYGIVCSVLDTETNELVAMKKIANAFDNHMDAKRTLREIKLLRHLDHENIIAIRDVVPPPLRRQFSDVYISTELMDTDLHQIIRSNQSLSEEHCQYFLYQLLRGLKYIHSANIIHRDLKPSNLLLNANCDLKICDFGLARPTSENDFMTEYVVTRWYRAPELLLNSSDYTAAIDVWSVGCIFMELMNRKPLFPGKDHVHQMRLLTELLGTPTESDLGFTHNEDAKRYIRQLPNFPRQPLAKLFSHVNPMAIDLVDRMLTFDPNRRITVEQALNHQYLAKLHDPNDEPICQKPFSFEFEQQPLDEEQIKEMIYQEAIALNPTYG
Briefly: two-hybrid.

Drawing on doi:10.1101/2021.02.02.429361 (bioRxiv, 2021), this text covers binding for two substances.

Results are given in words; binding and its absence hold for the method and conditions named. A result given as binding can be weak or reduced; the word gives no strength. Where a sequence is shown, tags or fusion partners need not be part of it.

For “AtABI5 C-terminal variant (ABI5C), yeast two-hybrid fusion (Arabidopsis thaliana) (domain or fragment)”, the binding entry was “no binding”.
In the case of “AtABI5 N-terminal variant (ABI5N), yeast two-hybrid fusion (Arabidopsis thaliana) (domain or fragment)”, the binding result is reported as “binds”.
